The target of experiment [1] is IGF1R overexpressed in LX-2 cells (OE) (UniProt P08069). In words: co-IP; IGF1R antibody (CST) pre-incubated on Protein A/G magnetic beads, incubated overnight with lysate of LX-2 or HSC-T6 cells (NC and OE groups, irradiation with 6 Gy or 8 Gy); DNA-PKcs detected by Western blot. Background: Immunoblotting shows a protein as a band on a membrane.
Experiment [2] has as its target insulin-like growth factor 1 receptor (IGF1R), endogenous in LX-2 cells (human (endogenous in LX-2)) (UniProt P08069). The description is as above.

Sequences of proteins named here, by UniProt entry; tags and fusion partners are left off. A change or cut given only in a name is not applied to a line headed by its entry.
UniProt P08069: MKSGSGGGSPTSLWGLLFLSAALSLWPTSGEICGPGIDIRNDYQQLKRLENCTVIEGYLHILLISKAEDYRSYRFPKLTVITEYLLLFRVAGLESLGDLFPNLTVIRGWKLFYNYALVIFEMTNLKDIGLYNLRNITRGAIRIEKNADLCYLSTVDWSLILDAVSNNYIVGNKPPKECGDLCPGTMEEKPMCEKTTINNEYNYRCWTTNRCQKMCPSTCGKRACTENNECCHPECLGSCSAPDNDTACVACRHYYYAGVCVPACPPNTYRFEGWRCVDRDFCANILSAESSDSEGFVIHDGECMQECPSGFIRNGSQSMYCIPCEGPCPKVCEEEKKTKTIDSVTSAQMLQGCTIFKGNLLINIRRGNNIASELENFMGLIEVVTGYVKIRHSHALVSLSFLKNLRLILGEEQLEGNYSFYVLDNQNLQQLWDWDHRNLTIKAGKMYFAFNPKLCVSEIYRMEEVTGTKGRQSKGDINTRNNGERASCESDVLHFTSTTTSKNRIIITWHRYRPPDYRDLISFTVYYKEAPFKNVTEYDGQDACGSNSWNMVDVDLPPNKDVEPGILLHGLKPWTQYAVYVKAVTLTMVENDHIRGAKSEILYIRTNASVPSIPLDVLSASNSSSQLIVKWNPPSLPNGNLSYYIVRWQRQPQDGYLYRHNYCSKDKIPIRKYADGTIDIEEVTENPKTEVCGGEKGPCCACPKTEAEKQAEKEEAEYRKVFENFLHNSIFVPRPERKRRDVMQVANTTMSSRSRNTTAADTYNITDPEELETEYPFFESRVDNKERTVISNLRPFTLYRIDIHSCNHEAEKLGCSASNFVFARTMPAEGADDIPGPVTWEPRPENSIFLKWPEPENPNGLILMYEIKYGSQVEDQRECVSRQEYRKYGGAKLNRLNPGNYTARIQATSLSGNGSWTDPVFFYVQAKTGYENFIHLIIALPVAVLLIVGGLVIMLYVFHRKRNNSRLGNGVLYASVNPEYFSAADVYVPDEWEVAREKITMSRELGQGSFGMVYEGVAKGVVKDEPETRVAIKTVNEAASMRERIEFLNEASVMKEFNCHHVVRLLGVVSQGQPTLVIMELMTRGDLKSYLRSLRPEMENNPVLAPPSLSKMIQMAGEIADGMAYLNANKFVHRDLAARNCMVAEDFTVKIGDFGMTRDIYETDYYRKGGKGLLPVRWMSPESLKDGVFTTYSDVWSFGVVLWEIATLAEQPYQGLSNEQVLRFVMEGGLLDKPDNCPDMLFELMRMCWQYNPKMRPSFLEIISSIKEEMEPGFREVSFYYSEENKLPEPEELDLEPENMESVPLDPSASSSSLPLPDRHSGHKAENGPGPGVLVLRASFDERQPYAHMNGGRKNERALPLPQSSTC
UniProt P78527: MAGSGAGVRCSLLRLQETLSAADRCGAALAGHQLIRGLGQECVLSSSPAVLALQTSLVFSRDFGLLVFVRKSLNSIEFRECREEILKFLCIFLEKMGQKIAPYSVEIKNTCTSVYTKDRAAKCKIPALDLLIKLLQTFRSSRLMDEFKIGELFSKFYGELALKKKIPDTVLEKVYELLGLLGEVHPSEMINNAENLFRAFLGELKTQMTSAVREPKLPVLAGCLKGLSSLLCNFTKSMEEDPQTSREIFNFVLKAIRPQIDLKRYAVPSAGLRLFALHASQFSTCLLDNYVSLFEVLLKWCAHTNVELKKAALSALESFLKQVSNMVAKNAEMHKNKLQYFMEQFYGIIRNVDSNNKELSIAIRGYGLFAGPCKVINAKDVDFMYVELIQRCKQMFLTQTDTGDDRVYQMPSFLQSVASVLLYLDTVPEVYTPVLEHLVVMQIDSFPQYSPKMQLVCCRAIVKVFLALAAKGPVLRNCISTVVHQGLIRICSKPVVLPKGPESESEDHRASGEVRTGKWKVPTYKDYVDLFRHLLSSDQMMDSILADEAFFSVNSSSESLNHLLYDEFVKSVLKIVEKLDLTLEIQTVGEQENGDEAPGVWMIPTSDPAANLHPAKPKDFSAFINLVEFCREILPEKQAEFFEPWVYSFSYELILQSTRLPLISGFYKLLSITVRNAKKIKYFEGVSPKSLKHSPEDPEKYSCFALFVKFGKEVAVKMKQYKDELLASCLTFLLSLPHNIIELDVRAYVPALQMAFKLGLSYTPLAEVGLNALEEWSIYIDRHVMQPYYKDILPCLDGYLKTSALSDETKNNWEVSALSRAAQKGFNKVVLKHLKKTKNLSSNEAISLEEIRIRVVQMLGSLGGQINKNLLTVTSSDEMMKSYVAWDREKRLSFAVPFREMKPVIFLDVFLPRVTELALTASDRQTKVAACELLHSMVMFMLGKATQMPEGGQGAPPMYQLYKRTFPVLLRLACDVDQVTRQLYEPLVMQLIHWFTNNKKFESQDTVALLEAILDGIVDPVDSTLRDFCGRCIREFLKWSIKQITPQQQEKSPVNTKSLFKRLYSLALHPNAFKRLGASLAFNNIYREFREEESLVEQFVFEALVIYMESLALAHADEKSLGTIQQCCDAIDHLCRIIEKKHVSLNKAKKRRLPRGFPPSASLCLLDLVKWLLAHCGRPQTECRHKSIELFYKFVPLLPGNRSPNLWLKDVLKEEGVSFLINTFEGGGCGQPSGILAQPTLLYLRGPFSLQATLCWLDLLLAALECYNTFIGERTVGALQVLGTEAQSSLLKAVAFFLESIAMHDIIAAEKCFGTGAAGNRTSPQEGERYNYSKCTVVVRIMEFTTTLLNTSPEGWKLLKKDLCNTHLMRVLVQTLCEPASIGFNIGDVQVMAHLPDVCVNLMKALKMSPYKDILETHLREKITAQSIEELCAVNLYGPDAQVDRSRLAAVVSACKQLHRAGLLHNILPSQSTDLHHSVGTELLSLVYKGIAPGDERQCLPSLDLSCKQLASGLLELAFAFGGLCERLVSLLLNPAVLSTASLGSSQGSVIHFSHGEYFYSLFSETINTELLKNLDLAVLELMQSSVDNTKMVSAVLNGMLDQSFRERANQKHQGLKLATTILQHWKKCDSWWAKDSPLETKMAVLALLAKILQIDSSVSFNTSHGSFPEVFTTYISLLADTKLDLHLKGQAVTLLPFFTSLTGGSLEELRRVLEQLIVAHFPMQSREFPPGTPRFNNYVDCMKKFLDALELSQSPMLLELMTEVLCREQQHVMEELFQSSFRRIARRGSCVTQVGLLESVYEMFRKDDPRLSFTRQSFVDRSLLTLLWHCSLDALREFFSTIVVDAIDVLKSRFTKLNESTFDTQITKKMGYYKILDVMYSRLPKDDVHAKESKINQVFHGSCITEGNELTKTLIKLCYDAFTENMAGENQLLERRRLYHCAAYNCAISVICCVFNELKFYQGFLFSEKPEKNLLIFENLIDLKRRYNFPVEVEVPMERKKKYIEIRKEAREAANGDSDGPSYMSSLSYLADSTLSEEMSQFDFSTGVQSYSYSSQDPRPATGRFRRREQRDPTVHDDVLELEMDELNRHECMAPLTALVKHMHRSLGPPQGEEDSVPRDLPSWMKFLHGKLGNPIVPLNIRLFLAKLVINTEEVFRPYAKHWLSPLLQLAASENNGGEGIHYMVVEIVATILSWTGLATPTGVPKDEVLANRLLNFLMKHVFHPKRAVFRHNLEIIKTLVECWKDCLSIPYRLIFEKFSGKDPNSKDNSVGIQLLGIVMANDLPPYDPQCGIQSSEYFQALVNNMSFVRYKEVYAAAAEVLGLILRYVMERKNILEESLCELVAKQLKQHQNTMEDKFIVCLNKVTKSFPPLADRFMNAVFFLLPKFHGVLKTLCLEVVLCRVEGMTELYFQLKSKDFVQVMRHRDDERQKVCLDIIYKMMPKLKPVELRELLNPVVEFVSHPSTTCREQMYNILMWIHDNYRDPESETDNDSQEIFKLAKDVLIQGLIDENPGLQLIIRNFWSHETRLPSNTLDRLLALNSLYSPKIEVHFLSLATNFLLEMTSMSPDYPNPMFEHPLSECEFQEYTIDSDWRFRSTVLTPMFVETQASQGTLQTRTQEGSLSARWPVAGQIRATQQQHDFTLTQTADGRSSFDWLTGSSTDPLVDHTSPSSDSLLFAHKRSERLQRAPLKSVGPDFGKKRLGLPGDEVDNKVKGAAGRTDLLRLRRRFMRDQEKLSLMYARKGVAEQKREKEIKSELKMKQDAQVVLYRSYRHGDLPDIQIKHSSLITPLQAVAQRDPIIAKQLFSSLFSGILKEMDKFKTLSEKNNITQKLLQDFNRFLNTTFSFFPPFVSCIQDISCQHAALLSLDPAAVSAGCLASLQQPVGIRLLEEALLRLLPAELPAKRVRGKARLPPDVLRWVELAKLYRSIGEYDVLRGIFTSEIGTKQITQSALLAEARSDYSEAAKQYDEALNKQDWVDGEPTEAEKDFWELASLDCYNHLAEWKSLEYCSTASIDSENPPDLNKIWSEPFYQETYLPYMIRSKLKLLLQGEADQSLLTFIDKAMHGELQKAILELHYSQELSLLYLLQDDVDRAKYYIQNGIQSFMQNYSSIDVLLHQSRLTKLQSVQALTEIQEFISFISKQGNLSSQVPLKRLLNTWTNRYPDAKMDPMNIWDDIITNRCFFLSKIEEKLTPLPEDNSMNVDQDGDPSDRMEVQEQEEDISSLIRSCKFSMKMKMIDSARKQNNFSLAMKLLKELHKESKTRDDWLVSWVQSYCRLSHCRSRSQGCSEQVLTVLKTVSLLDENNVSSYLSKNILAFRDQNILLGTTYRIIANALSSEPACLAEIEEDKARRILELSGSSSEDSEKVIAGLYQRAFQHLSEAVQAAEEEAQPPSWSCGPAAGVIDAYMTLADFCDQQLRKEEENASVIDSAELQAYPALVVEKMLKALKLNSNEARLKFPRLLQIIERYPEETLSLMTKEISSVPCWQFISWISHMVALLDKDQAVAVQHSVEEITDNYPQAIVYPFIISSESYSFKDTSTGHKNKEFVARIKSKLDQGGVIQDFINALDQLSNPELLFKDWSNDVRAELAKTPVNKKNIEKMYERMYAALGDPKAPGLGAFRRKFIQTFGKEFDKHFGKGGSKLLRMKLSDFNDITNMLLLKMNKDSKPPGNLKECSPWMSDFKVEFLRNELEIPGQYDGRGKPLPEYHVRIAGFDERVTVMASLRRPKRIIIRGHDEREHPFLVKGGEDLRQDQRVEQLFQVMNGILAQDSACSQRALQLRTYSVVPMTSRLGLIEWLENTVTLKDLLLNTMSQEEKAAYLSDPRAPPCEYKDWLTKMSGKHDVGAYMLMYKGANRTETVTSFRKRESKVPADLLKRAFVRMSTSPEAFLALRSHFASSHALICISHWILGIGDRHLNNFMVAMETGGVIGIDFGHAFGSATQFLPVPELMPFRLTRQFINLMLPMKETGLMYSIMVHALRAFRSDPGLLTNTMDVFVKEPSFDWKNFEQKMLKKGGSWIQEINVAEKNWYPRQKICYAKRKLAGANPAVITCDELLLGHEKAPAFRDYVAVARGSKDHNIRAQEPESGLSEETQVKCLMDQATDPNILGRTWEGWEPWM

These are yes or no findings as the source states them, for the method shown. In cells and extracts the contact can be indirect. Some binding calls cover weakened binding; strength is not graded here.

For “DNA-dependent protein kinase catalytic subunit (DNA-PKcs), endogenous in LX-2 cells (from UniProt P78527 1-4128) (enzyme)”, the binding entry in experiment [1] and in experiment [2] was “binds” each time.

(Values after PMC12660224.)
